These are yes or no findings as the source states them, for the method shown. Some entries that bind do so weakly or less than the wild type. For some of these results: Sequences can lack the tags named with a protein.
How the values were obtained:
[1] = biological target: T1, MBP-TRPY1-C (cytosolic C terminus of TRPY1 fused to maltose-binding protein) (S. cerevisiae) (UniProt Q12324); assay: pull-down; MBP-fused TRPY1 fragments (12 ug) immobilised on amylose resin, incubated with 12 ug GST fusion proteins in the absence of Ca2+ (5 mM EGTA), 60 min, 4 °C; anti-GST blot; both purified
T1 sequence: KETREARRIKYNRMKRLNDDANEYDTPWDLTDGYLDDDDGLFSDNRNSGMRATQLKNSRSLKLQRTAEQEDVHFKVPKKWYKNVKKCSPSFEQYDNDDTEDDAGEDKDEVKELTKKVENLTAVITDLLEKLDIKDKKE

The chains behind the UniProt entries cited, without tags or fusion partners.
UniProt P06787: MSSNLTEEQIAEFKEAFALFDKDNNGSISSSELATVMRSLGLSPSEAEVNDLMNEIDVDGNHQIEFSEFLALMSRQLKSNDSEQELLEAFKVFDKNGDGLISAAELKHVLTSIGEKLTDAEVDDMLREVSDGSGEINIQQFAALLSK

[2] = biological target: T2, TRPY1 C-terminal peptides of the peptide scan covering residues 607–631 (S. cerevisiae) (UniProt Q12324); assay: peptide or protein array; 20-mer TRPY1 peptides shifted by five residues on cellulose membrane (16 nmoles per spot); ^14C-GST-Cmd1 (60 cpm per spot) in 50 mM Tris pH 7.5, 150 mM NaCl, 0.1% Triton X-100, 2 mM CaCl2, 4 °C, 16 h; autoradiography; both purified
T2 sequence (peptide): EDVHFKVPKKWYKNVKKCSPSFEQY

[3] = biological target: T3, TRPY1 N-terminal peptides of the peptide scan covering residues 28 to 52 (S. cerevisiae) (UniProt Q12324); assay: as above
T3 sequence (peptide): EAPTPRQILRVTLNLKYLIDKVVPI

[4] = biological target: T4, TRPY1 N-terminal peptides of the peptide scan covering residues 68 to 92 (S. cerevisiae) (UniProt Q12324); assay: as above
T4 sequence (peptide): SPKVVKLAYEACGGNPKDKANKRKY

binding [2]: binds
binding [3]: binds
binding [4]: binds
Substance: GST-Cmd1 (yeast calmodulin fused to glutathione-S-transferase) (from UniProt P06787 1-147)
binding [1]: no binding (condition: without Ca2+ (5 mM EGTA))

Reference: paper PMC8449268, “Activity of the yeast vacuolar TRP channel TRPY1 is inhibited by Ca^2+–calmodulin binding” (The Journal of Biological Chemistry, 2021)
